Patent US20060286112A1
Numbering of substitutions follows the chain as printed. Results are given in words; binding and its absence hold for the method and conditions named. Some entries that bind do so weakly or less than the wild type.

Sequences of proteins named here, by UniProt entry; tags and fusion partners are left off. Residues count along the entry.
UniProt P56199, residues 29-1179: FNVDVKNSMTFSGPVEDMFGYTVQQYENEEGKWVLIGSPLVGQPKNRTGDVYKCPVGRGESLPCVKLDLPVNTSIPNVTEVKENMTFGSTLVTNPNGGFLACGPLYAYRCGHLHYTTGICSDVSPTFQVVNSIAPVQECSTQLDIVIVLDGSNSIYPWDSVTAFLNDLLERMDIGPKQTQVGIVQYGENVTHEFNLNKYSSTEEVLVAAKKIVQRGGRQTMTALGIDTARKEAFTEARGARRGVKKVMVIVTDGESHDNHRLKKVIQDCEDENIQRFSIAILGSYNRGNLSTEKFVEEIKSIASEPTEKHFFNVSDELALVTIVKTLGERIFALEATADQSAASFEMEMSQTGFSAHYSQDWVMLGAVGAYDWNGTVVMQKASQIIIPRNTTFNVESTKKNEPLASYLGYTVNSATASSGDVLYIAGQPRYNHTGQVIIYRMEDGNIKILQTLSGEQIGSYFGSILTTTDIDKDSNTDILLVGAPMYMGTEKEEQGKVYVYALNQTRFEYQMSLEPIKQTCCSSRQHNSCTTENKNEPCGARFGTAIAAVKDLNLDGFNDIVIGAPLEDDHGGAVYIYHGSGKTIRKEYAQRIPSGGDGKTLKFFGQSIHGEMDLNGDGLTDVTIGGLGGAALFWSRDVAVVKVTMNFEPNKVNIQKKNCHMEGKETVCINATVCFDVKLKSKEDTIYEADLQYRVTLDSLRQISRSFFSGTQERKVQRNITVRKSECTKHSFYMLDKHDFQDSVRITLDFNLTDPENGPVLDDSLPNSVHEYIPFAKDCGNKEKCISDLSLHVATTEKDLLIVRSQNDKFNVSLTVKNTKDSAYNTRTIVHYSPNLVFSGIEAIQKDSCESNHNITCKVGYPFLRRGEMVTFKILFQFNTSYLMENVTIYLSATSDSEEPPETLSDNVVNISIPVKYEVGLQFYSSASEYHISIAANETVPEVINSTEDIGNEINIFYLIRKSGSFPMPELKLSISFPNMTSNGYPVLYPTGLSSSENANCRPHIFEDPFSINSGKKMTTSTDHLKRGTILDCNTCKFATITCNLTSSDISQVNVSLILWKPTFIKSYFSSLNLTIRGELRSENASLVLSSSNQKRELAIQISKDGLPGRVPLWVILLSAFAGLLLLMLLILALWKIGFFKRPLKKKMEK

B1: 10.1 (antibody, V domains shown)
VH: QVQLQQSGPGLVKPSETLSLTCTVSGASISSYYWSWIRQPAGKGLEWIGRIYASGSTNYNPSLKSRVTMSVDTSKSQFSLNLSSVTAADTAVYYCAREGWERLQDYYYYGLDVWGQGTTVTVSS
VL: EIVLTQSPGTLSLSPGERATLSCRASQSVSRNYLAWNQQKPGQAPRLLIYGASSRATGIPDRFSGSGSGTDFTLTISRLEPEDFAVYYCQQYGSSPLTFGGGTKVEIK
B2: 2.7 (antibody, V domains shown)
VH: EVQLVESGGGLVKPGGSLRLSCAASGFTFSNAWMSWVRQAPGKGLEWVGRIKRKTDGETTDYAAPVKGRFTISRDDSRNTLYLQMNSLKTEDTAVYYCTIYTYYYGMDVWGQGTTVTVSS
VL: DIQMTQSPSSLSASVGDRVTITCRASQSINNYLNWYQQKPGKAPKLLIYAASSLESGVPSRFSGSGSGTDFTLTISSLQPEDFATYYCQQSYSTPPTFGQGTKVEIK
B3: 2.19 (antibody, V domains shown)
VH: QVQLQESGPGLVKPSETLSLTCTVSGDSISSYYWSWIRQPPGKGLEWIGYVYYSGSTNYNPSLKSRVTMSVDTSKNQFSLKLSSVTAADTAVYYCARDLELYAFDIWGQGTMVTVSS
VL: B1 VL with S7F, A19V, R31S, N32T, L34V, A35V, N37Y, Y92H, L97W, G101Q
B4: 6.17 (antibody, V domains shown)
VH: EVQLVQSGAEVKKPGESLRISCKGSGYSVSSYWIGWVRQMPGKGLEWMGIIYPGDSDTRYSPSFQGQVTISADKSISTAFLQWISLKASDTAMYYCARLQGDCSGGSCYGHFDYWGQGTLVTVS
VL: EIVLTQSPGTLSLSPGERATLSCRASQTISSGYLAWYQQKPAQAPRLLIYVASRRATGIPDRFSGSGSGTDFTLTISRLEPEDFAVYYCQQYGSSSWTFGQGTTVEIK
B5: 6.18 (antibody, V domains shown)
VH: B4 VH with S30T, F80Y, I84S, S107T
VL: B4 VL with T28S, I29V, G32S, S94T
B6: 6.48 (antibody, V domains shown)
VH: B4 VH with Y114C
VL: DVVLTQSPLSLPVTLGQPASISCRSSQSLVNSDGDTYLSWFQQWPGQSPRRLFYEVSNWDSGVPDRFSGSGSGTDFTLKISRVEAEDVGVYYCMQGTHWLTFGGGTKVEIK

Molecular target: human VLA-1 α1 subunit (CD49a), full-length, on transfected CHO cells (human) (UniProt P56199)
Assay: FACS on CHO-α1 cells

Row | binding | Binder
1 | binds | B1

Molecular target: cynomolgus VLA-1 on IL-2 stimulated cynomolgus PBMC (cynomolgus (Macaca fascicularis)) (UniProt F7GLS1)
Assay: FACS on IL-2 stimulated cynomolgus PBMC

Row | binding | Binder
2 | binds | B2
3 | binds | B1
4 | binds | B3
5 | binds | B4
6 | binds | B5
7 | binds | B6
